Experimental data: PMC3378601
These are yes or no findings as the source states them, for the method shown. Some results given as binding are weak or reduced against the parent protein; the word gives no strength.

Amino acid sequences for entries named in this document (tags omitted). Residues count along the entry.
UniProt P05453, residues 1-253: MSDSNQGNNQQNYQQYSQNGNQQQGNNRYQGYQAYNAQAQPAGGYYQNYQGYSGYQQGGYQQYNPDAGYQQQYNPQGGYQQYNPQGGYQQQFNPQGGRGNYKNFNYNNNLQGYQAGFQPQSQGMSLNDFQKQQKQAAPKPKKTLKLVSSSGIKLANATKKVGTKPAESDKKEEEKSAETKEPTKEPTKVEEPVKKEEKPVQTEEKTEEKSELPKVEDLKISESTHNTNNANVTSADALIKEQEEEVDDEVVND
UniProt Q12329: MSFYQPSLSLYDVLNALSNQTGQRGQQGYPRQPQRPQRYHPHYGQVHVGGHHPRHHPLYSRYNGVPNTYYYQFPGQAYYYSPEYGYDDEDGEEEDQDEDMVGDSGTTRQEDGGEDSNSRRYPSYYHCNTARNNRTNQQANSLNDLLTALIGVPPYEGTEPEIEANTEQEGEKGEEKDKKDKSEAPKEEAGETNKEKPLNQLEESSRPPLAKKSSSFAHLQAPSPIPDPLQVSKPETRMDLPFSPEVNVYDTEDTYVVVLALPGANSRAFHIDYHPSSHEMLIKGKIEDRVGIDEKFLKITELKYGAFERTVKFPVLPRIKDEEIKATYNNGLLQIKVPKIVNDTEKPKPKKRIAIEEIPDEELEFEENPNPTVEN

Molecular target: NM-his, C-terminally his-tagged NM of Sup35 (yeast) (UniProt P05453)
Assay: pull-down; soluble NM-his (5 µM) incubated 60 min at 25°C with Hsp26 or Hsp42 (10 µM); NM-his recovered with Ni-NTA agarose, washed, eluted; SDS-PAGE, Coomassie; both purified

With “Hsp42, yeast small heat shock protein (from UniProt Q12329 1-375)” the binding was “binds weakly”.
